Data published in publication PMC5701422.
Construct, isoform or probe ends are uncertain for at least one entry. For part of these data: Negatives hold for the conditions tested. Tags and fusion partners may be left off the protein sequences shown.

Assays:
EgMYB4 (His-EgMYB4) [1] = target: T1, EgMYB4 (His-EgMYB4) (UniProt A0A140GNA8); experiment: competition with a labelled probe; conditions: labeled complex disappeared, LightShift Chemiluminescent EMSA Kit (Thermo) per manufacturer, biotin-labelled probes, pH and temperature not stated, recombinant protein, protein details: …
T1 sequence (looked up, limits assumed): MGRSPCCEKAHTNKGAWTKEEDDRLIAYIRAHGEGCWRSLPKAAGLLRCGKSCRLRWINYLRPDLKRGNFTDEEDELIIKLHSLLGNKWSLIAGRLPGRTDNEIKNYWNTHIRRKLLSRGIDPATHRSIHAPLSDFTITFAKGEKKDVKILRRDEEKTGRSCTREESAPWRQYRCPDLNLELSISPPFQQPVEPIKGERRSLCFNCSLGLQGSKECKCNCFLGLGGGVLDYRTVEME

EgMYB4 (His-EgMYB4) [2] = target: T1, EgMYB4 (His-EgMYB4); experiment: EMSA; conditions: LightShift Chemiluminescent EMSA Kit (Thermo) per manufacturer; biotin-labelled probes; pH and temperature not stated; recombinant protein; protein details: …; label: biotin

Row | Sequence | binding result (EgMYB4 (His-EgMYB4) [2]) | also measured
1 | GAGGCCCATAAACCAAACGTAGAAAAG (double strand) [AC-IV unlabeled competitor] |  | binding result (EgMYB4 (His-EgMYB4) [1]; 250-fold excess unlabeled AC-IV): binds
2 | GAGGCCCATAAACCAAACGTAGAAAAG (double strand) [AC-IV] | binds | 
3 | GAGGCCCATAAGAAGGGAGTAGAAAAG (double strand) [AC-mIV] | no binding | 
4 | GTTATCCGTTCGCAACAACCCGCCATATCAACCAAG (double strand) [AC-V unlabeled competitor] |  | binding result (EgMYB4 (His-EgMYB4) [1]; 250-fold excess unlabeled AC-V): binds
5 | GTTATCCGTTCGCAACAACCCGCCATATCAACCAAG (double strand) [AC-V] | binds | 
6 | GTTATCCGTTCGCGGAGGATCGCCATATCAACCAAG (double strand) [AC-mV] | no binding | 
